PubChem BioAssay AID686943 | Drosophila RNAi Screening Center | 2013
Purpose: 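Search across the genome for regulators of signalling from receptor tyrosine kinase to ERK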 (primary screen). System: Drosophila S2R+ haemocyte-like cells expressing YFP-tagged ERK (Rolled). Reagent: long dsRNA against Drosophila genes. Challenge: insulin stimulation versus unstimulated cells; dose and duration not given. Measured: 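Per-plate z-scores of phospho-ERK immunostaining normalised to YFP-tagged ERK, measured with and without insulin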. Reading the numbers: replicate 1, z-score of dpERK with insulin and replicate 2, z-score of dpERK with insulin: higher = more active ERK per ERK-YFP after insulin; replicate 1, z-score of dpERK under basal conditions: higher = more basal active ERK per ERK-YFP; replicate 1, z-score of ERK-YFP with insulin: higher = more YFP-tagged ERK signal.
The deposit covers about 23,000 reagents; this is a random part of those that have a named target and a result. 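Extra replicates exist only for a retested subset of genes; insulin dose and duration not given; both raised and lowered dpERK matter.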 The record does not give: the amount of reagent, the time to read-out.

gene	amplicon	replicate 1, z-score of dpERK with insulin	replicate 2, z-score of dpERK with insulin	replicate 1, z-score of dpERK under basal conditions	replicate 1, z-score of ERK-YFP with insulin
CG9393 (GeneID 41152)	DRSC16486	-1.41	-0.92	0.14	0.19
Cyp12c1 (GeneID 40037)	DRSC11125	-0.52	-0.41	-0.44	0.57
CG12849 (GeneID 37971)	DRSC04129	0.4	-0.81	-0.94	-0.03
CG12672 (GeneID 32781)	DRSC19482	-0.33	-1.09	-0.61	0.62
Adat1 (GeneID 34787)	DRSC03479	-0.74	-0.31	0.86	1.05
Spt (GeneID 35889)	DRSC07123	0.63	0.48	5.63	-0.13
brv2 (GeneID 39932)	DRSC10226	0.2	1.64	-1.43	1.12
CG15468 (GeneID 31426)	DRSC18051	0.59	0.38	-0.23	0.08
Df31 (GeneID 35418)	DRSC03738	0.69	0.29	1.67	-0.42
Df31 (GeneID 35418)	DRSC22163	0.71	0.08	0.31	-0.62
CG8813 (GeneID 33490)	DRSC00706	-0.75	-0.36	0.12	0.16
Rpp25 (GeneID 35574)	DRSC05002	2.05	0.58	0.07	-0.65
Phb1 (GeneID 49168)	DRSC03563	-0.57	-0.37	-2.2	0.12
nclb (GeneID 36150)	DRSC07009	-0.13	0.4	-0.36	0.04

Laid out differently: entries from further up
| gene | amplicon | replicate 1, z-score of dpERK with insulin | replicate 2, z-score of dpERK with insulin | replicate 1, z-score of dpERK under basal conditions | replicate 1, z-score of ERK-YFP with insulin |
| --- | --- | --- | --- | --- | --- |
| brv2 (GeneID 39932) | DRSC10226 | 0.2 | 1.64 | -1.43 | 1.12 |
| CG15468 (GeneID 31426) | DRSC18051 | 0.59 | 0.38 | -0.23 | 0.08 |

Next entries:
gene	amplicon	replicate 1, z-score of dpERK with insulin	replicate 2, z-score of dpERK with insulin	replicate 1, z-score of dpERK under basal conditions	replicate 1, z-score of ERK-YFP with insulin
CG14456 (GeneID 40481)	DRSC11713	0.22	0.33	-0.62	-0.11
CG9451 (GeneID 40118)	DRSC11074	-0.29	0	0.64	-0.31
Phae2 (GeneID 34638)	DRSC02555	0.28	0.29	0.13	0.35
CG5276 (GeneID 41373)	DRSC15759	0.94	0.18	0.27	-0.05
CG1671 (GeneID 36019)	DRSC06617	-0.38	-0.21	0.21	0.52
fon (GeneID 35211)	DRSC02507	-0.43	0.43	0.24	0.79
CG14380 (GeneID 41621)	DRSC14840	1.03	0.71	0.27	0.28
roq (GeneID 39818)	DRSC10227	0.02	-0.21	1.2	0.17
Ir76b (GeneID 40198)	DRSC10831	-0.86	0.43	-0.12	1.46
